The source gives many values for each of these; only a part stands here.
Tested on: CHD (death from CHD, nonfatal MI, or revascularization)
Test: WOSCOPS: SNP by pravastatin treatment interaction, logistic regression (synergy index), CHD endpoint
Type: in vivo, human
Description: CARE was a secondary prevention trial and WOSCOPS was a primary prevention trial.
The CHD endpoint was defined in the analyses herein of CARE as a composite endpoint of fatal CHD, definite non-fatal MI, or revascularization, and was defined in the analyses herein of WOSCOPS as a composite endpoint of death from CHD, nonfatal MI, or revascularization. In both the CARE and WOSCOPS analyses herein, the CVD endpoint was defined as a composite endpoint of CHD or stroke. […] Revascularization, which can include percutaneous transluminal coronary angioplasty (PTCA), stent placement, and coronary artery bypass graft (CABG), are medical interventions that indicate the presence of CHD.
Cohort and case-only study designs were used to identify SNPs associated with response to statin treatment.
For each SNP, a logistic regression model having treatment status as the dependent variable and SNP as the independent predictor variable was performed, with terms for age, sex and race included in the model as covariates. The anti-log of the regression coefficient corresponding to the SNP is an estimate of the synergy index (SI) (Davis et al., “Imputing gene-treatment interactions when the genotype distribution is unknown using case-only and putative placebo analyses-a new method for the Genetics of Hypertension Associated Treatment (GenHAT) study”, Statistics in Medicine 23: (2004), pages 2413-2427). The SI is a ratio of odds ratios: for example in the CARE and WOSCOPS studies, the SI represents the factor by which the odds-ratio of statin treatment, compared with placebo, among major homozygous individuals is multiplied by in order to obtain the odds-ratio of treatment vs. placebo among heterozygous individuals; and multiplied by a second time to obtain the odds-ratio of treatment vs. placebo in minor homozygous individuals. The case-only study design results in a valid estimate of the SI under the assumption that genotype and treatment are independent in the population. In a randomized clinical trial, genotype and treatment are independent by design. The p-value for the regression coefficient corresponding to the SNP results from a test of the null hypothesis that the regression coefficient is equal to zero (SI is equal to one) and thus small p-values indicate the SI is unlikely equal to one and that the effect of treatment likely differs by genotype. […]

Compound: CC[C@H](C)C(=O)O[C@H]1C[C@H](O)C=C2C=C[C@H](C)[C@H](CC[C@@H](O)C[C@@H](O)CC(=O)O)[C@H]21 [Pravastatin, pravastatin]
- OR (WOSCOPS, rs3806024 allele T, model ADD, Imputed): 2.274
- OR (WOSCOPS, rs3806024 allele T, model DOM, Imputed): 2.756
- OR (WOSCOPS, rs3847825 allele G, model ADD, Imputed): 0.7535
- OR (WOSCOPS, rs3852001 allele C, model REC, Genotyped): 2.797
- OR (WOSCOPS, rs3852002 allele G, model REC, Imputed): 2.797
- OR (WOSCOPS, rs3852003 allele A, model REC, Imputed): 2.797
- OR (WOSCOPS, rs3942254 allele T, model DOM, Imputed): 0.5955
- OR (WOSCOPS, rs3945085 allele A, model DOM, Imputed): 1.391
- OR (WOSCOPS, rs4029119 allele G, model ADD, Imputed): 0.1157
- OR (WOSCOPS, rs4029119 allele G, model DOM, Imputed): 0.1157
- OR (WOSCOPS, rs4146972 allele T, model DOM, Genotyped): 1.672
- OR (WOSCOPS, rs4259369 allele C, model REC, Imputed): 0.4161
- OR (WOSCOPS, rs4273613 allele T, model ADD, Imputed): 0.235
- OR (WOSCOPS, rs4273613 allele T, model DOM, Imputed): 0.235
- OR (WOSCOPS, rs4294022 allele C, model DOM, Imputed): 0.5507
- OR (WOSCOPS, rs4310554 allele C, model DOM, Genotyped): 1.609
- OR (WOSCOPS, rs4315598 allele T, model ADD, Imputed): 1.42
- OR (WOSCOPS, rs4370878 allele G, model DOM, Imputed): 1.391
- OR (WOSCOPS, rs4436200 allele C, model ADD, Imputed): 0.5856
- OR (WOSCOPS, rs4444612 allele G, model ADD, Imputed): 1.429
- OR (WOSCOPS, rs4450660 allele C, model DOM, Imputed): 1.719
- OR (WOSCOPS, rs4463950 allele C, model DOM, Imputed): 0.5555
- OR (WOSCOPS, rs4509702 allele C, model DOM, Imputed): 1.391
- OR (WOSCOPS, rs4533379 allele G, model ADD, Imputed): 1.429
- OR (WOSCOPS, rs4569984 allele A, model DOM, Imputed): 0.5254
- OR (WOSCOPS, rs4570530 allele C, model DOM, Imputed): 1.391
- OR (WOSCOPS, rs4571583 allele T, model DOM, Imputed): 0.5381
- OR (WOSCOPS, rs4586678 allele A, model DOM, Imputed): 1.719
- OR (WOSCOPS, rs4615971 allele C, model DOM, Imputed): 1.351
- OR (WOSCOPS, rs4629229 allele G, model DOM, Imputed): 0.6821
- OR (WOSCOPS, rs4641552 allele A, model ADD, Imputed): 0.5381
- OR (WOSCOPS, rs4682527 allele C, model DOM, Imputed): 1.785
- OR (WOSCOPS, rs4688632 allele G, model REC, Imputed): 0.656
- OR (WOSCOPS, rs4702720 allele A, model ADD, Imputed): 0.6922
- OR (WOSCOPS, rs4702720 allele A, model DOM, Imputed): 0.7001
- OR (WOSCOPS, rs4714484 allele A, model ADD, Imputed): 0.5988
- OR (WOSCOPS, rs4714484 allele A, model DOM, Imputed): 0.5097
- OR (WOSCOPS, rs4725142 allele G, model REC, Genotyped): 0.3868
- OR (WOSCOPS, rs4725144 allele G, model REC, Imputed): 0.3868
- OR (WOSCOPS, rs4760785 allele A, model ADD, Imputed): 0.7632
- OR (WOSCOPS, rs4760785 allele A, model DOM, Imputed): 0.5772
- OR (WOSCOPS, rs4760894 allele T, model ADD, Imputed): 0.7632
- OR (WOSCOPS, rs4760894 allele T, model DOM, Imputed): 0.5772
- OR (WOSCOPS, rs4760895 allele A, model ADD, Imputed): 0.7632
- OR (WOSCOPS, rs4760895 allele A, model DOM, Imputed): 0.5772
- OR (WOSCOPS, rs4767184 allele C, model ADD, Imputed): 0.7432
- OR (WOSCOPS, rs4773487 allele T, model ADD, Imputed): 0.5534
- OR (WOSCOPS, rs4780547 allele G, model REC, Imputed): 0.5086
- OR (WOSCOPS, rs4836502 allele T, model DOM, Imputed): 0.6021
- OR (WOSCOPS, rs4836507 allele C, model DOM, Imputed): 0.6042
- OR (WOSCOPS, rs4851531 allele T, model DOM, Imputed): 0.5595
- OR (WOSCOPS, rs4879931 allele G, model ADD, Imputed): 0.7554
- OR (WOSCOPS, rs4976276 allele T, model ADD, Imputed): 1.499
- OR (WOSCOPS, rs4977681 allele C, model REC, Imputed): 2.078
- OR (WOSCOPS, rs4986197 allele G, model ADD, Imputed): 1.42
- OR (WOSCOPS, rs4986220 allele T, model ADD, Imputed): 1.437
- OR (WOSCOPS, rs5756669 allele C, model DOM, Imputed): 1.639
- OR (WOSCOPS, rs6033138 allele C, model ADD, Imputed): 1.429
- OR (WOSCOPS, rs6040619 allele C, model ADD, Imputed): 1.432
- OR (WOSCOPS, rs6040625 allele T, model ADD, Imputed): 1.45
- OR (WOSCOPS, rs6040630 allele A, model ADD, Imputed): 1.444
- OR (WOSCOPS, rs6040633 allele A, model ADD, Imputed): 1.429
- OR (WOSCOPS, rs6040634 allele T, model ADD, Imputed): 1.429
- OR (WOSCOPS, rs6075209, dom, CaseOnly, CHD, pravastatin vs placebo): 0.68
- OR (WOSCOPS, rs7094941, add, CaseOnly, CHD, pravastatin vs placebo): 0.66
- OR (WOSCOPS, rs7616936, dom, CaseOnly, CHD, pravastatin vs placebo): 2.30
- OR (WOSCOPS, rs7910196, add, CaseOnly, CHD, pravastatin vs placebo): 1.72
- OR (WOSCOPS, rs8109631, dom, CaseOnly, CHD, pravastatin vs placebo): 1.54
- OR (WOSCOPS, rs9436636, add, CaseOnly, CHD, pravastatin vs placebo): 1.36
- OR (WOSCOPS, rs10103297, dom, CaseOnly, CHD, pravastatin vs placebo): 2.74
- OR (WOSCOPS, rs10875941, dom, CaseOnly, CHD, pravastatin vs placebo): 0.51
- OR (WOSCOPS, rs11082492, add, CaseOnly, CHD, pravastatin vs placebo): 1.76
- OR (WOSCOPS, rs12657484, dom, CaseOnly, CHD, pravastatin vs placebo): 1.76
- OR (WOSCOPS, rs13314266, add, CaseOnly, CHD, pravastatin vs placebo): 0.40
- OR (WOSCOPS, rs16861467, add, CaseOnly, CHD, pravastatin vs placebo): 0.37
- OR (WOSCOPS, rs17716275, dom, CaseOnly, CHD, pravastatin vs placebo): 2.26
- WOSCOPS OR (rs2574, Source caseonly): 1.54
- WOSCOPS OR (rs4773, Source caseonly): 0.77
- WOSCOPS OR (rs7508, Source caseonly): 1.39
- WOSCOPS OR (rs9857, Source caseonly): 0.83
- WOSCOPS OR (rs9960, Source caseonly): 1.41
- OR (rs198460, allele G, REC, Genotyped): 2.115
- WOSCOPS OR (rs198460, Source cohort): 1.54
- WOSCOPS OR (rs198464, Source caseonly): 2.04
- WOSCOPS OR (rs238250, Source cohort): 1.43
- WOSCOPS OR (rs251817, Source caseonly): 2.98
- WOSCOPS OR (rs271046, Source caseonly): 0.58
- WOSCOPS OR (rs475420, Source caseonly): 1.37
- WOSCOPS OR (rs494111, Source caseonly): 0.59
- WOSCOPS OR (rs498657, Source caseonly): 1.18
- OR (rs603940, allele G, REC, Genotyped): 0.5858
- OR (rs613799, allele (A1) C, model DOM, Imputed, WOSCOPS): 1.45
- WOSCOPS OR (rs619825, Source caseonly): 0.61
- OR (rs644041, allele (A1) G, model ADD, Imputed, WOSCOPS): 1.555
- OR (rs644041, allele (A1) G, model DOM, Imputed, WOSCOPS): 1.611
- WOSCOPS OR (rs646749, Source caseonly): 0.62
- OR (rs647645, allele (A1) C, model ADD, Imputed, WOSCOPS): 0.7227
- OR (rs647645, allele (A1) C, model REC, Imputed, WOSCOPS): 0.4895
- OR (rs658108, allele (A1) A, model DOM, Imputed, WOSCOPS): 1.477
- OR (rs668732, allele (A1) A, model DOM, Imputed, WOSCOPS): 1.56
- OR (rs671041, allele (A1) A, model DOM, Imputed, WOSCOPS): 1.507
- OR (rs687047, allele (A1) C, model ADD, Imputed, WOSCOPS): 0.7129
- OR (rs688358, allele (A1) A, model ADD, Imputed, WOSCOPS): 0.6788
- WOSCOPS OR (rs892162, Source caseonly): 0.47
- WOSCOPS OR (rs974950, Source caseonly): 0.56
- WOSCOPS OR (rs996022, Source caseonly): 0.62
- OR (rs1003148, allele C, ADD, Imputed): 0.7355
- OR (rs1003148, allele C, REC, Imputed): 0.7366
- WOSCOPS OR (rs1003322, Source caseonly): 1.52
- OR (rs1008705, allele C, DOM, Imputed): 1.451
- OR (rs1012924, allele G, ADD, Imputed): 0.5758
- OR (rs1012924, allele G, DOM, Imputed): 0.554
- OR (rs1016030 allele G ADD Genotyped): 1.554
- OR (rs1017558, allele A, REC, Imputed): 2.201
- OR (rs1030006 allele G, model REC, Imputed): 1.973
- OR (rs1031811 allele A, model REC, Imputed): 1.901
- OR (rs1032188, allele G, REC, Imputed): 0.2613
- WOSCOPS OR (rs1045916, Source cohort): 0.80
- OR (rs1065639, allele C, DOM, Imputed): 1.785
- OR (rs1116596, allele T, DOM, Imputed): 0.6113
- WOSCOPS OR (rs1129570, Source caseonly): 1.58
- WOSCOPS OR (rs1136046, Source caseonly): 1.16
- OR (rs1149350, allele A, DOM, Imputed): 1.97
- OR (rs1150143, allele G, DOM, Imputed): 1.782
- WOSCOPS OR (rs1155875, Source caseonly): 0.66
- WOSCOPS OR (rs1266489, Source caseonly): 0.74
- WOSCOPS OR (rs1344081, Source cohort): 1.58
- WOSCOPS OR (rs1352236, Source caseonly): 0.27

Source: patent US10563263B2, “Genetic polymorphisms associated with statin response and cardiovascular diseases, methods of detection and uses thereof” (CELERA CORPORATION, priority 2010, dated 2020)
